Assay results reported in the supplement of paper PMC12067093, “Discovery and optimisation of a covalent ligand for TRIM25 and its application to targeted protein ubiquitination” (Chemical Science, 2025).
The other results are listed elsewhere or left out.

Compound: Cc1cc(ccc1-c1ccccc1)C(=O)N1CCCN(CC1)C(=O)CCl [compound 10]
Assay: probe-labelled cysteine peptide fold change vs DMSO (competition) (log2 fold change); higher = less target engagement (more negative = stronger competition)
Conditions: THP-1, incubation time: 4 h
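Also: competitive profiling in live THP-1 cells: cysteine peptides tagged with an iodoacetamide desthiobiotin (IA-DTB) probe, intensity after compound treatment relative to DMSO-treated cells.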

| Target | probe-labelled cysteine peptide fold change (10 µM) | probe-labelled cysteine peptide fold change (50 µM) |
| --- | --- | --- |
| ELAVL1_Q15717_13_SNGYEDHMAEDCRGDIGR (UniProt Q15717) | 0.257 | 0.232 |
| EML3_Q32P44_816_VVAVADDFCK (UniProt Q32P44) | -0.0999 | -0.206 |
| EIPR1_Q53HC9_83_GVLTTCYNR (UniProt Q53HC9) | 0.00147 | -0.249 |
| EIF5_P55010_138_LCTFILK (UniProt P55010) | -0.108 | -0.423 |
| EIF4G3_O43432_928_NHDEESLECLCR (UniProt O43432) | 0.183 | -0.0438 |
| EPRS_P07814_623_VTWLAETTHALPIPVICVTYEHLITKPVLGKDEDFK (UniProt P07814) | 0.125 | -0.203 |
| ELAC2_Q9BQ52_51_RGPSGCSGGPNTVYLQVVAAGSR (UniProt Q9BQ52) | -0.177 | -0.351 |
| EPHX2_P34913_232_VTGIQLLNTPAPLPTSCNPSDMSHGYVTVKPR (UniProt P34913) | 0.0137 | -0.154 |
| ELP2_Q6IA86_14_VAPVLETSHVFCCPNR (UniProt Q6IA86) | -0.0763 | -0.184 |
| ELOVL5_Q9NYP7_61_NKQPFSCR (UniProt Q9NYP7) | -0.567 | -1.94 |
| ERCC1_P07992_274_EDLALCPGLGPQK (UniProt P07992) | -0.00478 | -0.04 |
| EIF3M_Q7L2H7_134_VAASCGAIQYIPTELDQVRK (UniProt Q7L2H7) | -0.0129 | 0.342 |
| EIF4B_P23588_457_EEDCHSPTSKPPKPDQPLK (UniProt P23588) | 0.0478 | -0.166 |
| EMG1_Q92979_171_NPVSDHFPVGCMK (UniProt Q92979) | -0.0343 | -0.0523 |
| EPRS_P07814_623_VTWLAETTHALPIPVICVTYEHLITKPVLGK (UniProt P07814) | 0.0774 | 0.14 |
| EP300_Q09472_1272_MHQICVLHHEIIWPAGFVCDGCLK (UniProt Q09472) | 0.116 | 0.126 |
| ERCC2_P18074_155_AQYQHDTSLPHCR (UniProt P18074) | 0.0924 | -0.0418 |
| ELOC_Q15369_11_TYGGCEGPDAMYVK (UniProt Q15369) | -0.0831 | -0.111 |
| ELMO1_Q92556_726_EPSNYDFVYDCN (UniProt Q92556) | -0.585 | -0.146 |
| ELP4_Q96EB1_361_LNNLICDESDVK (UniProt Q96EB1) | -0.0288 | 0.12 |
| EMILIN2_Q9BXX0_553_VQVVEDICLLNIQGKPHGMEGALPNREDR (UniProt Q9BXX0) | -0.356 | -0.171 |

| Target | probe-labelled cysteine peptide fold change (10 µM) | probe-labelled cysteine peptide fold change (50 µM) |
| --- | --- | --- |
| ERCC3_P19447_403_DKPIGCSVAISTYSMLGHTTK (UniProt P19447) | -0.099 | -0.436 |
| EIF3E_P60228_350_IHQCISINMLADK (UniProt P60228) | 0.0405 | 0.15 |
| EML4_Q9HC35_820_VHLFQYPCSK (UniProt Q9HC35) | -0.0419 | -0.0122 |
| EIF3D_O15371_438_WTCCALLAGSEYLK (UniProt O15371) | 0.074 | 0.0166 |
| ELAC2_Q9BQ52_640_TCDLEEFQTCLVR (UniProt Q9BQ52) | 0.0019 | -0.0197 |
| EIF3M_Q7L2H7_175_LLYEALVDCK (UniProt Q7L2H7) | 0.0945 | 0.361 |
| EMC1_Q8N766_338_TVAAVMACR (UniProt Q8N766) | -0.00518 | 0.175 |
| ENG_P17813_207_GCHLEGVAGHK (UniProt P17813) | 0.0518 | 0.162 |
| EMG1_Q92979_66_TYELLNCDK (UniProt Q92979) | -0.0743 | -0.116 |
| ELANE_P08246_187_SNVCTLVR (UniProt P08246) | 0.205 | 0.0156 |
| ELMOD2_Q8IZ81_285_GLLLDCNVALTLK (UniProt Q8IZ81) | 0.29 | 0.52 |
| EIF4G3_O43432_461_TCLSEDAK (UniProt O43432) | -0.21 | -0.16 |
| EML2_O95834_110_CLAIHPDMVTIATGQVAGTTK (UniProt O95834) | -0.0841 | 0.0588 |
| ELP2_Q6IA86_810_EAEGAEWLHFASCGEDHTVK (UniProt Q6IA86) | 0.0595 | -0.00523 |
| ELP1_O95163_23_DIQGPGNPQCFSLR (UniProt O95163) | 0.145 | -0.213 |
| EIF3H_O15372_177_LMEVCK (UniProt O15372) | -0.109 | 0.0694 |
| EIF5_P55010_99+102_FVLCPECENPETDLHVNPK (UniProt P55010) | 0.0984 | -0.336 |
| ENOSF1_Q7L5Y1_307_ALVPLGIGIATGEQCHNR (UniProt Q7L5Y1) | -0.0519 | -0.286 |
| EPRS_P07814_744_ERPTPSLNNNCTTSEDSLVLYNR (UniProt P07814) | -0.104 | -0.0423 |
| ELP1_O95163_414_QTVVPPPMCTYQLLFPHPVNQVTFLAHPQK (UniProt O95163) | -0.103 | 0.0129 |
| EPRS_P07814_337_KGSQFGQSCCLR (UniProt P07814) | -0.0803 | -0.327 |

No new results follow: an excerpt of the list.

| Target | probe-labelled cysteine peptide fold change (10 µM) | probe-labelled cysteine peptide fold change (50 µM) |
| --- | --- | --- |
| EML4_Q9HC35_820_VHLFQYPCSK (UniProt Q9HC35) | -0.0419 | -0.0122 |
| EIF3D_O15371_438_WTCCALLAGSEYLK (UniProt O15371) | 0.074 | 0.0166 |
| ELAC2_Q9BQ52_640_TCDLEEFQTCLVR (UniProt Q9BQ52) | 0.0019 | -0.0197 |
| EIF3M_Q7L2H7_175_LLYEALVDCK (UniProt Q7L2H7) | 0.0945 | 0.361 |
| EMC1_Q8N766_338_TVAAVMACR (UniProt Q8N766) | -0.00518 | 0.175 |
| ENG_P17813_207_GCHLEGVAGHK (UniProt P17813) | 0.0518 | 0.162 |
| EMG1_Q92979_66_TYELLNCDK (UniProt Q92979) | -0.0743 | -0.116 |
| ELANE_P08246_187_SNVCTLVR (UniProt P08246) | 0.205 | 0.0156 |
| ELMOD2_Q8IZ81_285_GLLLDCNVALTLK (UniProt Q8IZ81) | 0.29 | 0.52 |
| EIF4G3_O43432_461_TCLSEDAK (UniProt O43432) | -0.21 | -0.16 |
| EML2_O95834_110_CLAIHPDMVTIATGQVAGTTK (UniProt O95834) | -0.0841 | 0.0588 |
| ELP2_Q6IA86_810_EAEGAEWLHFASCGEDHTVK (UniProt Q6IA86) | 0.0595 | -0.00523 |
